Further values from the same series stand in other lists.
Assay: Dynamic PET imaging with [^18F]OXD-2314 in baboons
Type: in vivo
Settings: PET time-activity curve, Figure S18
Procedure: Dynamic PET imaging was performed in a rhesus macaque (macaca mulatta) monkey following the injection of [^18F]OXD-2314 at baseline (104.9 MBq, n = 1) and was repeated in a second [^18F]OXD-2314 study (115.8 MBq, n = 1) where a displacing dose of unlabeled OXD-2314 (0.5 mg/kg) was administered 10 min after [^18F]OXD-2314 injection to verify the absence of specific binding in NHP brain. Venous blood samples were drawn to characterize the metabolic fate of [^18F]OXD-2314 in the macaque. Dynamic [^18F]OXD-2314 PET imaging was also performed in a male (106.6 MBq, n = 1) and a female (115.8 MBq, n = 1) baboon (papio anubis), and venous blood samples were drawn in both baboons to characterize potential effects of sex on radiometabolism. Bilateral regions of interest were defined on 5–8 contiguous axial image planes for the lateral temporal cerebral cortex, cerebellum, striatum, and whole brain, which were used to sample dynamic [^18F]OXD-2314 PET images to determine the time-varying radioactivity concentration expressed in SUV units. [^18F]OXD-2314 readily entered macaque brain (whole brain peak ~2.2 SUV at ~2 min) and distributed uniformly throughout cortical and subcortical grey matter regions (Fig. 5A). […] Radiometabolite analysis of macaque venous blood identified only one, polar radiometabolite, which increased from 37% at 10 min to 77% at 90 min post-injection and was not likely brain penetrant (Figs. S19, S20).
The rate of uptake and clearance of [^18F]OXD-2314 in the brains of a male and a female baboon were compared (Fig. 6A). Initial whole brain uptake was rapid in both baboons, with peak uptake achieved in ~2 min with an SUV of ~2.8 in the male baboon and an SUV of ~1.9 in the female baboon. […] It is not known whether the higher initial brain uptake of [^18F]OXD-2314 observed in a male baboon is due to sex differences, normal physiologic variability, or the additional variability introduced by the effects of anesthesia. No evidence of elevated uptake or retention in the baboon striatum following [^18F]OXD-2314 injection was observed (Fig. S16), a region where high levels of PSP and CBD pathology are expected. Therefore, the normal brain retention patterns of [^18F]OXD-2314 are unlikely to confound the detection of specific signal from PSP and CBD pathology in human subjects.
NHP imaging studies in a male (13 kg) macaca mulata monkey and male (25.7 kg) and female (14.2 kg) papio anubis baboons were carried out in accordance with the guidelines set forth by the Institutional Animal Care and Use Committee at the University of Pittsburgh. Additional details regarding the maintenance of an active environmental enrichment program for the housed NHPs are described in Supplemental Information. Dynamic [^18F]OXD-2314 PET imaging of the brains of the isoflurane anesthetized NHPs was performed using a Siemens Biograph mCT Flow 64-4 R PET/CT scanner ([…], maximum intrinsic spatial resolution of 4.3 mm FWHM[53]. Following a low-dose CT scan for attenuation correction of PET emission data, [^18F]OXD-2314 was injected intravenously and emission data were acquired in list-mode for a period of 90 min. Emission data were binned into a dynamic series of 32 frames (20 sec-10 min) and reconstructed using filtered back projection with Fourier rebinning (FORE + FBP) with standard corrections applied that included attenuation, scatter, electronics dead-time, and physical decay.

CO[C@H]1CCCN(c2ccc(-c3cc4cc(O)ccc4[nH]3)c([18F])n2)C1 [[^18F]OXD-2314]
Cerebellum SUV (Time 0.166667 min): 0.1377 SUV
Cortex SUV (Time 0.166667 min): 0.1198 SUV
Striatum SUV (Time 0.166667 min): 0.1133 SUV
Whole Brain SUV (Time 0.166667 min): 0.1112 SUV
Cerebellum SUV (Time 0.5 min): 3.685 SUV
Cortex SUV (Time 0.5 min): 2.615 SUV
Striatum SUV (Time 0.5 min): 2.848 SUV
Whole Brain SUV (Time 0.5 min): 2.426 SUV
Cerebellum SUV (Time 0.833333 min): 3.716 SUV
Cortex SUV (Time 0.833333 min): 2.798 SUV
Striatum SUV (Time 0.833333 min): 3.058 SUV
Whole Brain SUV (Time 0.833333 min): 2.708 SUV
Cerebellum SUV (Time 1.16667 min): 3.687 SUV
Cortex SUV (Time 1.16667 min): 2.909 SUV
Striatum SUV (Time 1.16667 min): 3.619 SUV
Whole Brain SUV (Time 1.16667 min): 2.788 SUV
Cerebellum SUV (Time 1.5 min): 3.989 SUV
Cortex SUV (Time 1.5 min): 2.971 SUV
Striatum SUV (Time 1.5 min): 3.29 SUV
Whole Brain SUV (Time 1.5 min): 2.805 SUV
Cerebellum SUV (Time 1.83333 min): 4.135 SUV
Cortex SUV (Time 1.83333 min): 3.03 SUV
Striatum SUV (Time 1.83333 min): 3.821 SUV
Whole Brain SUV (Time 1.83333 min): 2.829 SUV
Cerebellum SUV (Time 2.25 min): 3.6952 SUV
Cortex SUV (Time 2.25 min): 3.134 SUV
Striatum SUV (Time 2.25 min): 3.309 SUV
Whole Brain SUV (Time 2.25 min): 2.8189 SUV

— paper PMC11178805, “Ligand-based design of [^18F]OXD-2314 for PET imaging in non-Alzheimer’s disease tauopathies” (Nature Communications, 2024)
